# Test results published in patent publication US20260199464A1, “COMPOSITIONS AND METHODS FOR ENHANCING CAR-T CELL PERFORMANCE AND FOR CANCER IMMUNOTHERAPY” (The Regents of the University of California, priority 2022, published 2026).
# At least one structure is not confirmed: it was looked up by name or label, or the drawing left a doubt.
# System: in vitro activated CD8 T cells
# Assay: Mitochondrial respiration (OCR, MITOSTRESS test, Seahorse) of in vitro activated CD8 T cells
# Format: cell-based, Mouse
smiles,measurement,setting,value
"CCC(C)(C)C(=O)O[C@H]1C[C@@H](C)C=C2C=C[C@H](C)[C@H](CC[C@@H]3C[C@@H](O)CC(=O)O3)[C@H]21 [statin, simvastatin]",mitochondrial respiration of CD8 T cells,"10 μM simvastatin at the time of activation, 24 hours",reduced
same,dependence of the statin effect on mitochondrial respiration,simvastatin in combination with mevalonolactone (MVA) or cholesterol,"mevalonate-dependent, but cholesterol-independent"
